From ChEMBL document CHEMBL4316593 (Eur J Med Chem, 2019)
Further values from the same series stand in other lists.

Experiments:
Assay type in all cases: cell-based
Conditions in all cases: U-87MG ATCC
[1] = Inhibition of RTK/PI3K/AKT/mTOR signaling in human U87 cells assessed as down regulation of TUFT1 gene expression at cytotoxic IC50 measured after 48 hrs relative to control
[2] = Inhibition of RTK/PI3K/AKT/mTOR signaling in human U87 cells assessed as down regulation of ARHGEF26 gene expression at cytotoxic IC50 measured after 48 hrs relative to control
[3] = Inhibition of RTK/PI3K/AKT/mTOR signaling in human U87 cells assessed as down regulation of SNX29 gene expression at cytotoxic IC50 measured after 48 hrs relative to control
[4] = Inhibition of RTK/PI3K/AKT/mTOR signaling in human U87 cells assessed as down regulation of AMOTL2 gene expression at cytotoxic IC50 measured after 48 hrs relative to control
[5] = Inhibition of RTK/PI3K/AKT/mTOR signaling in human U87 cells assessed as down regulation of HMGCS1 gene expression at cytotoxic IC50 measured after 48 hrs relative to control
[6] = Inhibition of RTK/PI3K/AKT/mTOR signaling in human U87 cells assessed as down regulation of HHLA3 gene expression at cytotoxic IC50 measured after 48 hrs relative to control
[7] = Inhibition of RTK/PI3K/AKT/mTOR signaling in human U87 cells assessed as down regulation of PHKG2 gene expression at cytotoxic IC50 measured after 48 hrs relative to control
[8] = Inhibition of RTK/PI3K/AKT/mTOR signaling in human U87 cells assessed as down regulation of CHMP4C gene expression at cytotoxic IC50 measured after 48 hrs relative to control
[9] = Inhibition of RTK/PI3K/AKT/mTOR signaling in human U87 cells assessed as down regulation of ARHGAP17 gene expression at cytotoxic IC50 measured after 48 hrs relative to control
[10] = Inhibition of RTK/PI3K/AKT/mTOR signaling in human U87 cells assessed as down regulation of NEK7 gene expression at cytotoxic IC50 measured after 48 hrs relative to control
[11] = Inhibition of RTK/PI3K/AKT/mTOR signaling in human U87 cells assessed as down regulation of GK5 gene expression at cytotoxic IC50 measured after 48 hrs relative to control
[12] = Inhibition of RTK/PI3K/AKT/mTOR signaling in human U87 cells assessed as down regulation of YKT6 gene expression at cytotoxic IC50 measured after 48 hrs relative to control
[13] = Inhibition of RTK/PI3K/AKT/mTOR signaling in human U87 cells assessed as down regulation of QDPR gene expression at cytotoxic IC50 measured after 48 hrs relative to control
[14] = Inhibition of RTK/PI3K/AKT/mTOR signaling in human U87 cells assessed as down regulation of CBLL1 gene expression at cytotoxic IC50 measured after 48 hrs relative to control
[15] = Inhibition of RTK/PI3K/AKT/mTOR signaling in human U87 cells assessed as down regulation of PSMC1 gene expression at cytotoxic IC50 measured after 48 hrs relative to control
[16] = Inhibition of RTK/PI3K/AKT/mTOR signaling in human U87 cells assessed as down regulation of UHRF1BP1L gene expression at cytotoxic IC50 measured after 48 hrs relative to control
[17] = Inhibition of RTK/PI3K/AKT/mTOR signaling in human U87 cells assessed as down regulation of ERLIN2 gene expression at cytotoxic IC50 measured after 48 hrs relative to control
[18] = Inhibition of RTK/PI3K/AKT/mTOR signaling in human U87 cells assessed as down regulation of SUPT16H gene expression at cytotoxic IC50 measured after 48 hrs relative to control
[19] = Inhibition of RTK/PI3K/AKT/mTOR signaling in human U87 cells assessed as up regulation of ALPK2 gene expression at cytotoxic IC50 measured after 48 hrs relative to control
[20] = Inhibition of RTK/PI3K/AKT/mTOR signaling in human U87 cells assessed as up regulation of DIRAS family GTPase 1 gene expression at cytotoxic IC50 measured after 48 hrs relative to control
[21] = Inhibition of RTK/PI3K/AKT/mTOR signaling in human U87 cells assessed as up regulation of mercaptopyruvate sulfurtransferase gene expression at cytotoxic IC50 measured after 48 hrs relative to control
[22] = Inhibition of RTK/PI3K/AKT/mTOR signaling in human U87 cells assessed as up regulation of cAMP responsive element binding protein 5 gene expression at cytotoxic IC50 measured after 48 hrs relative to control
[23] = Inhibition of RTK/PI3K/AKT/mTOR signaling in human U87 cells assessed as up regulation of transducer of ERBB2, 1 gene expression at cytotoxic IC50 measured after 48 hrs relative to control
[24] = Inhibition of RTK/PI3K/AKT/mTOR signaling in human U87 cells assessed as up regulation of endoplasmic reticulum oxidoreductase 1 alpha gene expression at cytotoxic IC50 measured after 48 hrs relative to control
[25] = Inhibition of RTK/PI3K/AKT/mTOR signaling in human U87 cells assessed as up regulation of THO complex 2 gene expression at cytotoxic IC50 measured after 48 hrs relative to control
[26] = Inhibition of RTK/PI3K/AKT/mTOR signaling in human U87 cells assessed as up regulation of sorbitol dehydrogenase gene expression at cytotoxic IC50 measured after 48 hrs relative to control
[27] = Inhibition of RTK/PI3K/AKT/mTOR signaling in human U87 cells assessed as up regulation of protein disulfide isomerase family A member 3 gene expression at cytotoxic IC50 measured after 48 hrs relative to control
[28] = Inhibition of RTK/PI3K/AKT/mTOR signaling in human U87 cells assessed as up regulation of ETV4 gene expression at cytotoxic IC50 measured after 48 hrs relative to control
[29] = Inhibition of RTK/PI3K/AKT/mTOR signaling in human U87 cells assessed as up regulation of EGFR gene expression at cytotoxic IC50 measured after 48 hrs relative to control
[30] = Inhibition of RTK/PI3K/AKT/mTOR signaling in human U87 cells assessed as up regulation of PGRMC2 gene expression at cytotoxic IC50 measured after 48 hrs relative to control
[31] = Inhibition of RTK/PI3K/AKT/mTOR signaling in human U87 cells assessed as up regulation of SUMO2 gene expression at cytotoxic IC50 measured after 48 hrs relative to control
[32] = Inhibition of RTK/PI3K/AKT/mTOR signaling in human U87 cells assessed as up regulation of HNRNPK gene expression at cytotoxic IC50 measured after 48 hrs relative to control

Q: Which results are given for `CC(=O)C(=NNc1ccccc1C#N)C(C)=O`?
A: log2FC [1]: -1.82; log2FC [2]: -1.79; log2FC [3]: -1.74; log2FC [4]: -1.34; log2FC [5]: -1.14; log2FC [6]: -1.14; log2FC [7]: -1.08; log2FC [8]: -0.977; log2FC [9]: -0.936; log2FC [10]: -0.92; log2FC [11]: -0.914; log2FC [12]: -0.905; log2FC [13]: -0.846; log2FC [14]: -0.819; log2FC [15]: -0.758; log2FC [16]: -0.736; log2FC [17]: -0.558; log2FC [18]: -0.422; log2FC [19]: 2.42; log2FC [20]: 1.32; log2FC [21]: 1.11; log2FC [22]: 1.05; log2FC [23]: 0.989; log2FC [24]: 0.848; log2FC [25]: 0.755; log2FC [26]: 0.667; log2FC [27]: 0.667; log2FC [28]: 0.609; log2FC [29]: 0.589; log2FC [30]: 0.533; log2FC [31]: 0.42; log2FC [32]: 0.353
